From US5968771

Sequences of proteins named here, by UniProt entry; tags and fusion partners are left off. A change or cut given only in a name is not applied to a line headed by its entry.
UniProt Q78ZR5: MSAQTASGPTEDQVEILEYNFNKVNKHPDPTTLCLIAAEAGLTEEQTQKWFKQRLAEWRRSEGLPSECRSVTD

Key:
[1] = target: giig15b (Rattus norvegicus) (UniProt Q78ZR5); test: EMSA; conditions: dose-dependent shift; 30 pg probe, 5 ug protein, room temperature 30 min; full probe flanks not stated in the assay text (SEQ 11 may be the probe); purified recombinant protein; label: 32P
[2] = target: giig15b (Rattus norvegicus) (UniProt Q78ZR5); test: footprint; conditions: DNase I protection of TCAATTAAAT; 5 ug protein, poly(dA-dC), 2% polyvinyl alcohol; purified recombinant protein; label: 32P

Sequence	binding result [1]	binding result [2]
TCAATTAAAT (double strand) [homeobox consensus site probe]	binds	–
TCTAGCGCGGGGCGTGTGCAGGCACGGCTCAATTAAATTTTTGCACTCGTCCCGGCTCTTTCTAGC (double strand) [homeobox footprint target oligonucleotide]	–	binds

For at least one entry, the source does not settle the construct or the ends of the probe.
